Measured values reported in patent US20040029197A1, “Novel human cancer/testis antigen and gene thereof” (priority 2000, published 2004).
No constants are given. Whether binding was seen depends on the method and setting. Some entries that bind do so weakly or less than the wild type.

By UniProt entry, the sequences of proteins in these tests, tags left out. Where a name states a change or a piece, a line headed by the entry shows the natural chain unless it says otherwise.
UniProt P04386: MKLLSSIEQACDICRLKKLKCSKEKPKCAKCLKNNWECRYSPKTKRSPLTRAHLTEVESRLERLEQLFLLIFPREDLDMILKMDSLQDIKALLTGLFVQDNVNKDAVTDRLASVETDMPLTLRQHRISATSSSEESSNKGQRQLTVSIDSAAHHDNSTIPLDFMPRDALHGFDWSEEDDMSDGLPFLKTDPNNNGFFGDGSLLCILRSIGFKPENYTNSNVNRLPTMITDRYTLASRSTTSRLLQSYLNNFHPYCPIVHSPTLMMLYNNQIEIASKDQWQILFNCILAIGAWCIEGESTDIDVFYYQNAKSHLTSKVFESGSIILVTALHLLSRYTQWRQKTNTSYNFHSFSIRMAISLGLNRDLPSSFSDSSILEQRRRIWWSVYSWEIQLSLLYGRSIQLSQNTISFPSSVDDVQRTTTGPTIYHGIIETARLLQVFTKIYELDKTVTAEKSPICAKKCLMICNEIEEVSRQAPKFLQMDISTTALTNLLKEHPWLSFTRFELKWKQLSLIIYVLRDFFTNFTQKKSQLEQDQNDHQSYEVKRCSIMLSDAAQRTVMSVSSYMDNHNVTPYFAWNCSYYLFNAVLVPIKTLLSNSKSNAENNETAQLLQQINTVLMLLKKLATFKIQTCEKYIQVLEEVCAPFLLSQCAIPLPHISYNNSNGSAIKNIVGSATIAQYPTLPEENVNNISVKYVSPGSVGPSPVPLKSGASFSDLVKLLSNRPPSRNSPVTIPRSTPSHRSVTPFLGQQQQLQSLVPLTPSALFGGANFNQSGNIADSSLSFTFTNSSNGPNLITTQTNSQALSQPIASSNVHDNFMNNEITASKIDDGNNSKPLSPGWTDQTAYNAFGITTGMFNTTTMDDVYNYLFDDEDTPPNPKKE
UniProt P16383: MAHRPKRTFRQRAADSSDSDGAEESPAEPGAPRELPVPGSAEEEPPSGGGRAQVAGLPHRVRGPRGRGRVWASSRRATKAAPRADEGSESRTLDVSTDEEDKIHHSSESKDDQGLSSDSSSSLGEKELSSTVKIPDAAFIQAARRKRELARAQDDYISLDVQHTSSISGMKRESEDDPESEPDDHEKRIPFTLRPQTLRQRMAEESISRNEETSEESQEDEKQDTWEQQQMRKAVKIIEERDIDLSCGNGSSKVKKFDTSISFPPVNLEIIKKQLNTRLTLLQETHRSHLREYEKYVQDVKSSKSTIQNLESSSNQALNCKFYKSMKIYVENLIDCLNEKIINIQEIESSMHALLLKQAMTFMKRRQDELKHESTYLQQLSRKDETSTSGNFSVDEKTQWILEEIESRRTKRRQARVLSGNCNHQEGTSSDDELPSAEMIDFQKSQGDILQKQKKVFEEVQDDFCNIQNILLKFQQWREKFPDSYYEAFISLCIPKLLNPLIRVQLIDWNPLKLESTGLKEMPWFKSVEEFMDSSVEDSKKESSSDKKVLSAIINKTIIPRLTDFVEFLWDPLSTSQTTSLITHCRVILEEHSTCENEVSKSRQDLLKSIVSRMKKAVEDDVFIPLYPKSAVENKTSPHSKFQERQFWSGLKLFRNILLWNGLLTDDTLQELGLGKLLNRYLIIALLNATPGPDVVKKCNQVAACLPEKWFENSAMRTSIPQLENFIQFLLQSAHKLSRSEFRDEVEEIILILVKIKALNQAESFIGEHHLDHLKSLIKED
UniProt Q8NG31: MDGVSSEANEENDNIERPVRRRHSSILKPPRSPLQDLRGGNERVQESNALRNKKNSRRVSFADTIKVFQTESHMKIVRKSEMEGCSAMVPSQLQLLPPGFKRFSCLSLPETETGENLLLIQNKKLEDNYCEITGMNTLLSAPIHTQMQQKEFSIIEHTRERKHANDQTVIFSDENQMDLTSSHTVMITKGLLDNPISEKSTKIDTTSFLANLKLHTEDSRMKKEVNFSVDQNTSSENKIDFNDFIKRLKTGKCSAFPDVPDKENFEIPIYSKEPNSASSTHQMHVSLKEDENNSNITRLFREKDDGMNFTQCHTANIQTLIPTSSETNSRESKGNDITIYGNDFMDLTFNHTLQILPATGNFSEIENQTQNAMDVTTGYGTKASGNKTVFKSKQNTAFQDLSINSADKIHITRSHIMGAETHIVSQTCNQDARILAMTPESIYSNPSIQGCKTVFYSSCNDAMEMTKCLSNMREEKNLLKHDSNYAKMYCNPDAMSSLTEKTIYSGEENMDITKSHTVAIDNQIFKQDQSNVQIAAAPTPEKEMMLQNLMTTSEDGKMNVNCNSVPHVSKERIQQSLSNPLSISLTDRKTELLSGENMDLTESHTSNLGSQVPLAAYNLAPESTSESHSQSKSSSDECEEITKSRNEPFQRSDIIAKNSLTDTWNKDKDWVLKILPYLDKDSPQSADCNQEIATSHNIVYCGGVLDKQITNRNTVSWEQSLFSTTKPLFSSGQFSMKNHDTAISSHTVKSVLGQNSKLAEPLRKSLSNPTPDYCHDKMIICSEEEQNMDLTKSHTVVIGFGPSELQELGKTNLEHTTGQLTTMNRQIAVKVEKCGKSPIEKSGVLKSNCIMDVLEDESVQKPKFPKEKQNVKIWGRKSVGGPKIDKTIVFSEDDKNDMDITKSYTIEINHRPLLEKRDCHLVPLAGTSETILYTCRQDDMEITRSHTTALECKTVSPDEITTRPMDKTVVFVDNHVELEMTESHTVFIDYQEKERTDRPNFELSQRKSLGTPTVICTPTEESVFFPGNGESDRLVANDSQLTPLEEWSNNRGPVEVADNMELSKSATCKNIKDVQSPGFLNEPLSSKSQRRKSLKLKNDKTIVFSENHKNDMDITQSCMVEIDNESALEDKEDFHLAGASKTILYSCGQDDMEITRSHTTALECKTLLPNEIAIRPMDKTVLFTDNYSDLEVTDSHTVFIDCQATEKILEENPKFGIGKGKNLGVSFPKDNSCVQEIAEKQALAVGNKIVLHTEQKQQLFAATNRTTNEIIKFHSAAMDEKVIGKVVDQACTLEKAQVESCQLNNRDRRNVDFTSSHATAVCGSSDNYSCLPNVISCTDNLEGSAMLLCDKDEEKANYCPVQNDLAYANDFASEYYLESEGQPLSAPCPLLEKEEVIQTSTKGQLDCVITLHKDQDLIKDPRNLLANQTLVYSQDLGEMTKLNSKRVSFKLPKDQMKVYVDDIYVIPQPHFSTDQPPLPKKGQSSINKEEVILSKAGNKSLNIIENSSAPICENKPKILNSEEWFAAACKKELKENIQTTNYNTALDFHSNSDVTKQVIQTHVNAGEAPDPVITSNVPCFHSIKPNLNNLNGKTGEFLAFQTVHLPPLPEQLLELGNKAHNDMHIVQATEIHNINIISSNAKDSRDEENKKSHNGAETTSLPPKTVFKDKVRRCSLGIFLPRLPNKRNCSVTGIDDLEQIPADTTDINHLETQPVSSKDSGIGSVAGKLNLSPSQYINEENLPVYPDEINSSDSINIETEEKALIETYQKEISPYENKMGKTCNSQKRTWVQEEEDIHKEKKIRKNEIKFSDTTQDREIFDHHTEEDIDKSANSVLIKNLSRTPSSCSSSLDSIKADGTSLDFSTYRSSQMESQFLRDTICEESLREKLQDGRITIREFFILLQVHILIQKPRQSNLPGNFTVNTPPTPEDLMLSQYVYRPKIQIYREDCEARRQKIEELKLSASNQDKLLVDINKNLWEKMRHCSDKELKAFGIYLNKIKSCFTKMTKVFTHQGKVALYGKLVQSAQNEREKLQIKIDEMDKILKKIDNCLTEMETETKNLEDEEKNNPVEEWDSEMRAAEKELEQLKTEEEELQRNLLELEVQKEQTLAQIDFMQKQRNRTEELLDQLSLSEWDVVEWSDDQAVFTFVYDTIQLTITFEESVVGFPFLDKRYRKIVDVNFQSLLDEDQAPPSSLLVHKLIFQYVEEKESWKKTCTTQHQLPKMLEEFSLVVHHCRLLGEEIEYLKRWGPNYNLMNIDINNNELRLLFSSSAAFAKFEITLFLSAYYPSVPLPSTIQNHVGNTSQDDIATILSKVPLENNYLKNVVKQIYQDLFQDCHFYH

Target: GalDBD-GCF (fusion protein of the DNA-binding domain of Gal4 and transcription factor GCF, from plasmid pGAL-GCF) (yeast) (UniProt P04386+P16383)
Assay: yeast Two-hybrid System (His3 and LacZ reporters), Gal4 DBD-GCF bait against a human B cell cDNA library clone

binding: binds
Substance: D40 (protein encoded by the D40 cDNA clone isolated in the yeast Two-hybrid screen) (from UniProt Q8NG31 1-911)
